Laboratory results taken from the supplement of paper PMC9015667.
Where a name gives a salt, the structure may show the parent alone. Some of the results follow. Many values rest on one well or one pass, so single values are uncertain.

Test system: M229R (matched melanoma line resistant to BRAF inhibitors)
Assay: reduction in cell viability relative to untreated/vehicle; higher = more growth inhibition
Conditions: 200 nM; 72 h

SMILES	reduction in cell viability [%]
CC(C)[C@H](C(=O)Nc1ccc(C(=O)NO)cc1)c1ccccc1	3.54
Cc1cn[nH]c1 [Fomepizole]	< 0
CC(C)NCC(O)c1ccc(O)c(O)c1 (stereo not given) [Isoproterenol]	< 0
Cc1ccc(NC(=O)C2(c3ccc4c(c3)OC(F)(F)O4)CC2)nc1-c1cccc(C(=O)O)c1 [Lumacaftor]	< 0
CCOc1cc(N2CCC(O)CC2)ccc1Nc1ncc2c(n1)N(C)c1ccccc1C(=O)N2C	< 0
Clc1ccc(CCC(Cn2ccnc2)Sc2c(Cl)cccc2Cl)cc1 (stereo not given) [Butoconazole nitrate]	< 0
COc1ccc(C2CC(c3ccccc3)=NN2c2ccc(S(N)(=O)=O)cc2)cc1 (stereo not given)	< 0
O=c1[nH]nc(OCCCc2ccc(Cl)cc2)c(NCc2cccnc2)c1Br [Parogrelil]	< 0
COc1cc(N2CCC(N3CCN(C)CC3)CC2)ccc1Nc1ncnc(Nc2ccccc2S(=O)(=O)C(C)C)n1	< 0
C[C@H](NCc1ccc2c(c1)nc(NC(=O)c1ccc(-c3cn[nH]c3)s1)n2CCc1ccccc1)C(C)(C)C	66.6
Nc1nc(OCc2ccccc2)c2nc[nH]c2n1 [O6-Benzylguanine]	< 0
CC1(C)OC2=C(C(=O)c3ccccc3C2=O)[C@H](NCc2ccccc2)[C@@H]1O	< 0
CCC(=O)O[C@]1(C(=O)CO)CC[C@H]2[C@@H]3CCC4=CC(=O)CC[C@]4(C)[C@H]3CC[C@@]21C [17 alpha-propionate]	< 0
C=CC(=O)Nc1cccc(Oc2nc(Nc3ccc(N4CCN(C)CC4)cc3OC)ncc2Cl)c1	< 0
Cc1[nH]c2ccccc2c1CCNCc1ccc(/C=C/C(=O)NO)cc1 [Panobinostat (LBH589)]	78.3
Cc1c(-c2cccc3c(CCCOc4cccc5ccccc45)c(C(=O)O)n(Cc4cccnc4)c23)c(COc2ccc(N3CCN([S+](=O)([O-])N(C)C)CC3)cc2)nn1C	< 0
O=C(NCc1ccccc1)c1csc(Nc2ccncn2)n1 [Thiazovivin]	< 0
CNc1nc(Nc2ccc(C(=O)N3CCOCC3)cc2OC)ncc1Cl	< 0
O=C(CCCCCCC(=O)Nc1ccc([C@H]2O[C@@H](CSc3nc(-c4ccccc4)c(-c4ccccc4)o3)C[C@@H](c3ccc(CO)cc3)O2)cc1)NO [Tubacin]	< 0
CC1(C)CCC[C@]2(C)[C@H]3CC(=O)O[C@]3(C)CC[C@@H]12 [Sclareolide]	< 0

SMILES	reduction in cell viability [%]
N#Cc1c(O)c2c(-c3ccc(-c4ccccc4O)cc3)csc2[nH]c1=O	< 0
O=c1[nH]c(=O)n([C@H]2C[C@H](O)[C@@H](CO)O2)cc1F [Floxuridine]	16.8
CN(C)CCN(Cc1ccc(Cl)cc1)c1ccccn1 [Chloropyramine hydrochloride]	< 0
N#Cc1c(C2CCNCC2)cc(-c2c(O)cccc2OCC2CC2)nc1N [IKK-2 Inhibitor VIII]	< 0
CN1CCN(c2ncc(-c3cc(Cl)cc(Cl)c3Cl)c(N)n2)CC1 [Sipatrigine]	< 0
CC(=O)N1CCN(c2ccc(OCc3nn(C)c(C)c3-c3cccc4c(CCCOc5cc(C)c(Cl)c(C)c5)c(C(=O)O)n(Cc5cccnc5)c34)cc2)CC1	< 0
CCC1=C[C@@H]2CN(C1)Cc1c([nH]c3ccccc13)[C@@](C(=O)OC)(c1cc3c(cc1OC)N(C)[C@H]1[C@@](O)(C(=O)OC)[C@H](OC(C)=O)[C@]4(CC)C=CCN5CC[C@]31[C@@H]54)C2 [Vinorelbine tartrate]	43.9
CC1(C)C(N(O)C(=O)Nc2ccc(Cl)cc2)N(c2ccc(Cl)cc2)C(=O)N1CC(=O)NN=CC=Cc1ccc([N+](=O)[O-])o1 (stereo not given) [Eeyarestatin I]	< 0
COc1cc2ncnc(Nc3ccc(F)c(Cl)c3)c2cc1NC(=O)/C=C/CN1CCCCC1 [Dacomitinib]	< 0
CNC(=O)CN1CCC(Oc2cc3c(Nc4cccc(Cl)c4F)ncnc3cc2OC)CC1 [Sapitinib]	< 0
COc1c(OCCCN2CCOCC2)ccc2c1N=C(NC(=O)c1cnc(N)nc1)N1CCN=C21	7.06
C=CC(=O)N1CCc2ccc(-n3c(=O)ccc4cnc5ccc(-c6cnn(C)c6)cc5c43)cc21	< 0
CC[C@H](/C=C/[C@@H](C)[C@H]1CC[C@H]2[C@@H]3CC=C4C[C@@H](O)CC[C@]4(C)[C@H]3CC[C@]12C)C(C)C [Stigmasterol]	< 0
C=C1C[C@@]2(O)O[C@@]3(C[C@H]2C(C)C)[C@@H](C)CC[C@@H]13 [Curcumol]	< 0
Cc1ccc(-c2ncn(-c3ccc(Nc4nccc(-c5cccc(N6CCOCC6)c5)n4)cc3)n2)cn1	7.84
CN1CCC(=C2c3ccccc3CC(=O)c3sccc32)CC1 [Ketotifen]	< 0
CCCCOc1ccc(C(=O)Nc2ccc(F)cc2F)cc1	< 0
CCCCCCCCCCC[C@@H](C[C@@H]1OC(=O)[C@H]1CCCCCC)OC(=O)[C@H](CC(C)C)NC=O [Orlistat]	< 0
CC1=C[C@@H]2[C@H]([C@@H](O)C[C@@]3(C)[C@H]2C[C@@H](C)[C@]3(O)C(=O)CO)[C@@]2(C)Cc3cnn(-c4ccccc4)c3C=C12 [Deacetyl cortivazol]	< 0
COC(=O)Nc1nc2cc(C(=O)c3ccc(F)cc3)ccc2[nH]1 [Flubendazole]	37.6

Retrieved one by one from the entries so far, 3 records:
SMILES	reduction in cell viability [%]
CN1CCN(c2ncc(-c3cc(Cl)cc(Cl)c3Cl)c(N)n2)CC1 [Sipatrigine]	< 0
COC(=O)Nc1nc2cc(C(=O)c3ccc(F)cc3)ccc2[nH]1 [Flubendazole]	37.6
N#Cc1c(C2CCNCC2)cc(-c2c(O)cccc2OCC2CC2)nc1N [IKK-2 Inhibitor VIII]	< 0
